These are yes or no findings as the source states them, for the method shown. In cells and extracts the contact can be indirect.
Target: flag-ΔSIRT6 (core domain deleted) (UniProt Q8N6T7)
Assay: co-IP; 293 cells transfected with flag-SIRT6 or flag-ΔSIRT6; IP with flag antibody; blots with flag and p27 antibody

Chains of the proteins cited; added tags and fusions are not shown. Lines headed by an entry give the natural chain unless they say otherwise; changes in a name come on top.
UniProt Q8N6T7: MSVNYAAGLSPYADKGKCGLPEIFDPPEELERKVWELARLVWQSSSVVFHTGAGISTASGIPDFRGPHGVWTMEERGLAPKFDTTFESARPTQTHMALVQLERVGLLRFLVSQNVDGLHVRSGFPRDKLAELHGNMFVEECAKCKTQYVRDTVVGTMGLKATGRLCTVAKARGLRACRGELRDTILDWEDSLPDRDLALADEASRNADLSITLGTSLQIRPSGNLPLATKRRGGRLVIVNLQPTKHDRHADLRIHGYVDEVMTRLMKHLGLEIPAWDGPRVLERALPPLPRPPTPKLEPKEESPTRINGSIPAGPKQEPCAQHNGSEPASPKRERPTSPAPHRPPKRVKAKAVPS
UniProt P46527: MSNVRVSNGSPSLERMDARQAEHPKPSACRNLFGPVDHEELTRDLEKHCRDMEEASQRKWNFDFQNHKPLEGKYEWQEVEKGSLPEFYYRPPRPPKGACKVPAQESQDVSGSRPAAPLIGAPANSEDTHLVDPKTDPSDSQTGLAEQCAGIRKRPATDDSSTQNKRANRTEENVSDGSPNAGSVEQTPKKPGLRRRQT

In the case of “p27Kip1 (p27), endogenous (from UniProt P46527 1-198)”, the binding is reported as “no binding”.
